The record followed here is patent publication US20260183367A1.

The chains behind the UniProt entries cited, without tags or fusion partners. Residues count along the entry.
UniProt P49790, residues 2-1475: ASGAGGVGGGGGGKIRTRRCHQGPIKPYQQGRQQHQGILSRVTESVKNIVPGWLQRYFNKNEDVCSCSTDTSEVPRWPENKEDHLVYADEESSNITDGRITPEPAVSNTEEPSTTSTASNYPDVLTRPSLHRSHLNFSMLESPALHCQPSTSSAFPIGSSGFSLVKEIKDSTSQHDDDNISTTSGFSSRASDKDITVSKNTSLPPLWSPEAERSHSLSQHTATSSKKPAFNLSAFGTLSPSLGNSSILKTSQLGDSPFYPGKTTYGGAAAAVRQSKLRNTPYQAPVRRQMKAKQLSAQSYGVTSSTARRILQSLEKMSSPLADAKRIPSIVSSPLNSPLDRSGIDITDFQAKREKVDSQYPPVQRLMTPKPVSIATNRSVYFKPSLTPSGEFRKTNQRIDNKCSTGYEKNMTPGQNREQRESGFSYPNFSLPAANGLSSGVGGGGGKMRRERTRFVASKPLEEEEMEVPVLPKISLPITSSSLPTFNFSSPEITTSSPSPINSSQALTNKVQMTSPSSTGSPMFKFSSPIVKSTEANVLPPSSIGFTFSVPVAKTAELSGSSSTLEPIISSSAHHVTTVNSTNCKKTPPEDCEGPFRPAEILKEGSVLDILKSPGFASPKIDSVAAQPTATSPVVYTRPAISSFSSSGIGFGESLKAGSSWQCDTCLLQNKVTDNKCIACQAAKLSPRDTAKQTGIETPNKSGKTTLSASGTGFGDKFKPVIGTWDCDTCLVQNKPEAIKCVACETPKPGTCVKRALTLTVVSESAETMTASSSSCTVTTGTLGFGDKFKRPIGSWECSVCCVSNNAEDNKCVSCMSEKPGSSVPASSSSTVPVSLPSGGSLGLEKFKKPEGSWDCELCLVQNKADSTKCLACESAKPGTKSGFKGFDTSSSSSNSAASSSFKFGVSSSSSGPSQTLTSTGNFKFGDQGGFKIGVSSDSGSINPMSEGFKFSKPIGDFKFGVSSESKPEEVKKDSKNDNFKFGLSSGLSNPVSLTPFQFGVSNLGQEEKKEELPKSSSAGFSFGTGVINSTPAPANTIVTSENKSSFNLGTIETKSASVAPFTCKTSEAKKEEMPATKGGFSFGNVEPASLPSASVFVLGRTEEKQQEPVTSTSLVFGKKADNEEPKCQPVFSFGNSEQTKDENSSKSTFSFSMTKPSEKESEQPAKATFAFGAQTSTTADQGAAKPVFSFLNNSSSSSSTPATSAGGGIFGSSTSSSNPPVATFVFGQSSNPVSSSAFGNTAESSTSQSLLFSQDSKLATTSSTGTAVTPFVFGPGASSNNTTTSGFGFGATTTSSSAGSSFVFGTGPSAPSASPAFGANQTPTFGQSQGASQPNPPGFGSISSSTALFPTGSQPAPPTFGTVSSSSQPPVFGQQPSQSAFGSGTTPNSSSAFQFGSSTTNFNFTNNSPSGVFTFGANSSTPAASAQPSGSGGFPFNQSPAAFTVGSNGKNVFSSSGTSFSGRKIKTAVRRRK

Results are given in words; binding and its absence hold for the method and conditions named. Binding seen in cells or lysates may run through a third protein. Here binding means that the protein was enriched with, or labelled near, the bait; the list need not be complete. Tags and fused reporters may be left off the sequences shown.

The target of one assay is GFP-TDP-43-mNLS (UniProt Q13148). Put plainly: immunoprecipitation and mass spectrometry, HEK293 cells.
For another assay, the target named is Nup153 (UniProt P49790). The description is as above.

Consider LAALNCSVRDWIVKHVNTNPLCDLTPIFKDYEKYLA (peptide, not shown: large carriers) [mCherry-tagged Nup50 aa160-195], for which the binding entry with GFP-TDP-43-mNLS was “binds”.
Consider LAALNCSVRDWIVKHVNTNPLCDLTPIFKDYEKYLANIEQQ (peptide, not shown: large carriers) [mCherry-tagged Nup50 160-200], for which the binding entry with Nup153 is “binds”.
With CSVRDWIVKHVNTNPLCDLTPIFKDYEKYLANIEQQ (peptide, not shown: large carriers) [mCherry-tagged Nup50 aa165-200], the binding entry in the assay with GFP-TDP-43-mNLS is reported as “binds”.

B1: mCherry-tagged Nup50-N (1-210) (protein, not shown: large carriers)
chain: MAKRNAEKELTDRNWDQEDEAEDVGTFSMASEEVLKNRAIKKAKRRNVGFESDTGGAFKGFKGLVVPSGGGRFSGFGSGAGGKPLEGLSNGNNITSAPPFASAKAAADPKVAFGSLAANGPTTLVDKVSNPKTNGDSQQPSSSGLASSKACVGNAYHKQLAALNCSVRDWIVKHVNTNPLCDLTPIFKDYEKYLANIEQQHGNSGRNSES
Regarding B1, the binding result with Nup153 is listed as “binds”.
